This is an account of results in the supplement of paper PMC12823440, “Inhibitors supercharge kinase turnover through native proteolytic circuits” (Nature, 2025).

The chains behind the UniProt entries cited, without tags or fusion partners.
UniProt P07949, whole entry M918T, looked up: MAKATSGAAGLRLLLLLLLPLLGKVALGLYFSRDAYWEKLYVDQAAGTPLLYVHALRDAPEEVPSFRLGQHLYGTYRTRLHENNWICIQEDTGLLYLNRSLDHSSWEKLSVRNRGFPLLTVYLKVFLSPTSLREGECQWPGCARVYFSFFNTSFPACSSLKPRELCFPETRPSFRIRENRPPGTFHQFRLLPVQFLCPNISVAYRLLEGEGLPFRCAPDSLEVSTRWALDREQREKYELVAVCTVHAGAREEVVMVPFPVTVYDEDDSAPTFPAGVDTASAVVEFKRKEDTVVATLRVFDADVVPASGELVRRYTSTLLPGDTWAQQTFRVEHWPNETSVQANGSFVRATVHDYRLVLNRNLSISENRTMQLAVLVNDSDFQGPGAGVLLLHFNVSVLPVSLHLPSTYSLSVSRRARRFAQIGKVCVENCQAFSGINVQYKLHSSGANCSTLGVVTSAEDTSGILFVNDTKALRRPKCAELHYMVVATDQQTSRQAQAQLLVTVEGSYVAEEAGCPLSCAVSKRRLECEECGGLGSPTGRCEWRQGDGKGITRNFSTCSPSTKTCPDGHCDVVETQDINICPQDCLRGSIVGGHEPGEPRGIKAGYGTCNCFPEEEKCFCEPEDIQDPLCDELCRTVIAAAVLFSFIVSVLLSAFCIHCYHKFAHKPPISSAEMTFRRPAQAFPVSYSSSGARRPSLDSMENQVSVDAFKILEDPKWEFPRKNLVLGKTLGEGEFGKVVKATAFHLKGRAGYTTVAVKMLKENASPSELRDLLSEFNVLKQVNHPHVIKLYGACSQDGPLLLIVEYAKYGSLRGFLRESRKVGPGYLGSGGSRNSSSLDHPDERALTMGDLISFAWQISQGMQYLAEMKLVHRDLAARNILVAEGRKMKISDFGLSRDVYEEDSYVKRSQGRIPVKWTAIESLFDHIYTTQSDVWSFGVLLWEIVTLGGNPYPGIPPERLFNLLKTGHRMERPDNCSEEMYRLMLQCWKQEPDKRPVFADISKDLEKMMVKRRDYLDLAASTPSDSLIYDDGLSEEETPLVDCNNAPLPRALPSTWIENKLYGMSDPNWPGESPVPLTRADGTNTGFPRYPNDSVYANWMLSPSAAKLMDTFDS

Counter-ions that a name gives are not always drawn. The list shows a part of the results. The calls rarely recur for the same compound in another form.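 In K562 cells expressing nanoluciferase-fused kinases, luminescence was recorded at 4 h intervals between 2 and 18 h, normalized as percent of control with DMSO at 100% and a positive control at 0%. A significant (2 sigma) signal drop marks a time point as decreased. The authors' rule for a hit is not shown and takes in more than the number of time points.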

This experiment addresses RET_M918T (clone: RET_mut) (UniProt P07949). The experiment in a line: number of time points (of 5) at which kinase-Nluc abundance scored as decreased, DMSO-normalised (count); higher = more persistent destabilization. Conditions: K562; 2-18 h.
For `C[C@@H]1COCCN1c1nc(-c2cnc(N)cc2C(F)F)nc(N2[C@H](C)COC[C@@H]2C)n1` (2.5 µM), the “number of time points” value was 4.

For `O=C(O)c1cc(=O)c2c(OCC(O)COc3cccc4oc(C(=O)O)cc(=O)c34)cccc2o1` [Cromolyn (sodium)] (10 µM), the “number of time points” value was 0.

Turning to `CCc1ccc(OCC(=O)Nc2ccc(F)c([N+](=O)[O-])c2)cc1` (10 µM), the “number of time points” value came out at 0.

Take `CC(C)S(=O)(=O)c1ccc2nccc(Nc3ccc4scnc4c3)c2c1` (10 µM): the “number of time points” value amounted to 0.

Regarding `CN1CC[C@@H](c2c(O)cc(O)c3c(=O)cc(-c4ccc(C(F)(F)F)cc4Cl)oc23)[C@@H]1CO` [Voruciclib (hydrochloride)] (10 µM), the “number of time points” value is 0.

For `CC(C)=CC(=O)O[C@H]1Cc2cc3ccc(=O)oc3cc2OC1(C)C` [Decursin] (10 µM), the “number of time points” value came to 0.

As for `CC(C)C[C@@H](C(=O)Nc1ccn(C[C@@H](O)CO)n1)N1CC(Oc2ccccc2Cl)=CC1=O` [Dorzagliatin] (10 µM), the “number of time points” value is 0.

Take `CC(C)N1CCN(c2ccc(Nc3ncc4cc5n(c4n3)C3(CCCCC3)CNC5=O)nc2)CC1` [Lerociclib (dihydrochloride)] (2 µM): the “number of time points” value stood at 0.

`CCCCCCCCCCCCCCCCOP(=O)([O-])OCC[N+](C)(C)C` [Miltefosine] (10 µM): the “number of time points” value worked out at 0.

As to `COCCNc1cc(NC(=O)N2CCCc3cc(CN4CCN(C)CC4=O)c(C=O)nc32)ncc1C#N` [Roblitinib] (10 µM), the “number of time points” value was found to be 0.

For `Cc1ccc(NC(=O)c2ccc(CN(CCN(C)C)C(=O)c3cccnc3)cc2)cc1Nc1nccc(-c2cccnc2)n1` [PDGFRα kinase inhibitor 1] (10 µM), the “number of time points” value was 0.

As to `c1ccc(-c2nc(=NCCN3CCOCC3)sn2-c2ccccc2)cc1` [VP3.15 (dihydrobromide)] (10 µM), the “number of time points” value worked out at 0.

In the case of `O=C1NC(=Nc2c(Cl)cccc2Cl)S/C1=C\c1ccc2nccnc2c1` (2.5 µM), the “number of time points” value was found to be 0.

On to `Cc1cc(-c2ccnc(Nc3cnn(C)c3)n2)ccc1CNC(=O)N1CC(OC(C)C)C1` (10 µM), for which the “number of time points” value was determined as 0.

For the compound `CN(C)S(=O)(=O)c1ccc2c(c1)/C(=C/c1cc3c([nH]1)CCCC3)C(=O)N2` (2.5 µM), the “number of time points” value is 0.

In the case of `Cc1cnc(NC2CCOCC2)nc1-n1cnc(C(=O)N[C@H](CN)c2cc(F)cc(Cl)c2)c1` (10 µM), the “number of time points” value was 0.

As to `N#CC(c1ccnc(OCc2ccc(CN3CCOCC3)cc2)n1)c1nc2ccccc2s1` (stereo not drawn) [Bentamapimod] (2.5 µM), the “number of time points” value was 0.

Consider `Cc1c(-c2ccc(C(N)=O)c3[nH]c4cc(C(C)(C)O)ccc4c23)cccc1-n1cnc2ccccc2c1=O` (2.5 µM), for which the “number of time points” value came to 0.

On to `CN(C)c1nc2c(Br)c(Br)c(Br)c(Br)c2[nH]1` (10 µM), for which the “number of time points” value worked out at 0.

`Nc1ncnc2c1c(-c1ccc(Oc3ccccc3)cc1)nn2C1CCN(CCOCCOCCOc2ccc3c(c2)CN(C2CCC(=O)NC2=O)C3=O)CC1` (stereo not drawn) (2.5 µM): the “number of time points” value was 0.

As to `O=[N+]([O-])c1ccc(Nc2nc(N3CCOCC3)nc(N3CCOCC3)n2)cc1` (10 µM), the “number of time points” value worked out at 0.

For the compound `C[C@H](Nc1ncnc2[nH]cnc12)c1cc2ccc(F)cc2nc1-c1ccccn1` (10 µM), the “number of time points” value was determined as 0.

As for `CCc1cccc(CC)c1NC(=O)N1Cc2[nH]nc(NC(=O)c3ccc(N4CCN(C)CC4)cc3)c2C1` (2.5 µM), the “number of time points” value was 1.

In the case of `CCc1cncnc1N1CCN(Cc2nc3ccc(C(F)(F)F)cc3[nH]2)CC1` (10 µM), the “number of time points” value stood at 0.

On to `COc1cc(-c2cn[nH]c2)ccc1C(=O)Nc1ccc2c(c1)CCNCC2` (10 µM), for which the “number of time points” value was 0.

On to `Cn1cc2cc(C(F)(F)c3nnc4ccc(-c5cnn(C6CC6)c5)nn34)c(F)cc2n1` [Bozitinib] (10 µM), for which the “number of time points” value is 0.

`O=Nc1c2[nH]c3ccccc3nc-2c2ccccc12` [IQ-1S (free acid)] (2.5 µM): the “number of time points” value amounted to 0.

In the case of `CCN(CC)c1cc2oc(=O)c(-c3nc4ccccc4o3)cc2cc1C` (2.5 µM), the “number of time points” value amounted to 0.

Turning to `COc1cc(N2CCOCC2)ccc1NC(=O)c1csc(-c2cccnc2)n1` [IRAK inhibitor 6] (10 µM), the “number of time points” value stood at 0.

For `CNc1nc(Nc2cn(C(C)(C)C#N)nc2C)ncc1C(F)(F)F` (10 µM), the “number of time points” value was found to be 0.

As to `COc1nn(C)cc1Nc1nccc(-c2c[nH]c3c(NC(=O)[C@@H](C)N4CCN(C)CC4)cccc23)n1` (10 µM), the “number of time points” value is 0.

As to `N#Cc1ccnc(Nc2cc(C3CCN(C4COC4)CC3)cc(N3CCC(F)(F)C3)n2)c1` (2.5 µM), the “number of time points” value was determined as 0.

With `Cc1cccc2c3c(ccc12)C(=O)C1=C(OCC1C)C3=O` (stereo not drawn) [Dihydroisotanshinone I] (2.5 µM), the “number of time points” value turned out to be 0.

Take `CNc1nc(Nc2ccc(C(=O)N3CCOCC3)cc2OC)ncc1Cl` (2.5 µM): the “number of time points” value was 0.

`CCN(CC)c1ccc2cc(-c3nc4cc(C)ccc4o3)c(=O)oc2c1` (10 µM): the “number of time points” value was 0.

On to `COc1ccccc1C(=O)/C=C/c1ccccc1C(=O)O` (10 µM), for which the “number of time points” value stood at 0.

For `CC(=O)N1CCC(c2cc(-c3ccc(NC(=O)c4cccn(-c5ccc(F)cc5)c4=O)cc3F)c3c(N)ncnn23)CC1` (0.5 µM), the “number of time points” value was 0.

With `O[C@@H]1CO[C@H]2[C@@H]1OC[C@H]2Oc1nc2nc(-c3ccc(-c4ccccc4)cc3)c(Cl)cc2[nH]1` (10 µM), the “number of time points” value was 0.
